Experimental data published in the supplement of paper PMC10849652.
The list shows a part of the results.

The chains behind the UniProt entries cited, without tags or fusion partners. Where a name states a change or a piece, a line headed by the entry shows the natural chain unless it says otherwise.
UniProt Q9NYL9: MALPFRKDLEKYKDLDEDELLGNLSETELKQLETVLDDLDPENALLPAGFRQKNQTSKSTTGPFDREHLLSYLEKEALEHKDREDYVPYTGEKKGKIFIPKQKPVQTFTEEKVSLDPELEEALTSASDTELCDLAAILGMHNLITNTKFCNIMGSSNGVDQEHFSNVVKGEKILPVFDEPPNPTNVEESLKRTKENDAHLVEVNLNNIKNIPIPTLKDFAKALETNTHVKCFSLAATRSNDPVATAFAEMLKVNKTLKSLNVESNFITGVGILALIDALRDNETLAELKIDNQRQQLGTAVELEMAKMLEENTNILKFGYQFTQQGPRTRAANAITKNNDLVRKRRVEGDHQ
UniProt Q8TDI8: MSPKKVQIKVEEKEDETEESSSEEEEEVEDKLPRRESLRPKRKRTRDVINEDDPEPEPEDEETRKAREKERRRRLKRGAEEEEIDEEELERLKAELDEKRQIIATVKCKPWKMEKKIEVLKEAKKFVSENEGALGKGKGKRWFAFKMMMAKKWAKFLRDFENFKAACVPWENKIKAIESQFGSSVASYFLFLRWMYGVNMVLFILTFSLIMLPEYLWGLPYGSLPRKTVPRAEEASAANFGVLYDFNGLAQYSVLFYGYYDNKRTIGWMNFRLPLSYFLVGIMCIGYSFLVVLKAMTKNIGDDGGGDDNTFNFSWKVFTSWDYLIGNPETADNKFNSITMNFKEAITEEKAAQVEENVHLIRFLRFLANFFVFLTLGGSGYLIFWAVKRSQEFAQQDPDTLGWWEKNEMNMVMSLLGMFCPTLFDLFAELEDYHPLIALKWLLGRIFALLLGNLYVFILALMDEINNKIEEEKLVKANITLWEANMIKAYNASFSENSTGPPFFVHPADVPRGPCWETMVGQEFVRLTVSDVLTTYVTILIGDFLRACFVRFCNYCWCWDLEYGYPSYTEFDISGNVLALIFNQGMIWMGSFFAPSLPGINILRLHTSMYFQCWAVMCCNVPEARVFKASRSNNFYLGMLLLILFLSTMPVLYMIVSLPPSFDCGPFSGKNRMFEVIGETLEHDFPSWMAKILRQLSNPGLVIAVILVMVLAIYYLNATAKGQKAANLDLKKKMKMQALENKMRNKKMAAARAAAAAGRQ
UniProt Q9BRN9: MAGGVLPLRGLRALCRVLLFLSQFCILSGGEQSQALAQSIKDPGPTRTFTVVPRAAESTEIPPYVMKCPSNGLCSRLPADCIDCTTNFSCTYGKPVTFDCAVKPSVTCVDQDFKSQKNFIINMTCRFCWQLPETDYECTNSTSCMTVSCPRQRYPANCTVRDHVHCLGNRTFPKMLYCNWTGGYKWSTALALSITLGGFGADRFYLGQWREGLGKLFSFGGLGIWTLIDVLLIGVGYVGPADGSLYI
UniProt Q9BVK8: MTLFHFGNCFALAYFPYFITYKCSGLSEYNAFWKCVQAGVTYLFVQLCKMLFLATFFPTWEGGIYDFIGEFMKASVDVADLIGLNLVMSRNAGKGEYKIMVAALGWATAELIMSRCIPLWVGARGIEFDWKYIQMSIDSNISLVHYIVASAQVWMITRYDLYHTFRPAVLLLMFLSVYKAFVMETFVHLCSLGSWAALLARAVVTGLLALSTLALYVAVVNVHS
UniProt Q9H7F4: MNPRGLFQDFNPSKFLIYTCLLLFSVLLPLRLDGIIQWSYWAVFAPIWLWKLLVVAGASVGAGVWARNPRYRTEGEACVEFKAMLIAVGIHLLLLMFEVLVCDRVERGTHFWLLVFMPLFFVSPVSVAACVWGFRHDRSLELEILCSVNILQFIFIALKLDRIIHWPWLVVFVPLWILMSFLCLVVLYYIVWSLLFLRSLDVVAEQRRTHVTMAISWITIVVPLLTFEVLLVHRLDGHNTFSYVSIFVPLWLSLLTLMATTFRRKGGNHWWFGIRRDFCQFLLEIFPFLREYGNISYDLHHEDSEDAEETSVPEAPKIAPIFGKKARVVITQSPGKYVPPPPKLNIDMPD
UniProt Q5SWH9: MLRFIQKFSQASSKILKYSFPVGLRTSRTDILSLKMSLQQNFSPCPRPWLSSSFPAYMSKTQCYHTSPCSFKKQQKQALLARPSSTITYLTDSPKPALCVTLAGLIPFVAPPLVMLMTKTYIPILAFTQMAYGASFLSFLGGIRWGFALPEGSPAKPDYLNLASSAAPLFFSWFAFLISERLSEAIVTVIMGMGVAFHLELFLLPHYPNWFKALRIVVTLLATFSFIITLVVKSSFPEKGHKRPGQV
UniProt P21580: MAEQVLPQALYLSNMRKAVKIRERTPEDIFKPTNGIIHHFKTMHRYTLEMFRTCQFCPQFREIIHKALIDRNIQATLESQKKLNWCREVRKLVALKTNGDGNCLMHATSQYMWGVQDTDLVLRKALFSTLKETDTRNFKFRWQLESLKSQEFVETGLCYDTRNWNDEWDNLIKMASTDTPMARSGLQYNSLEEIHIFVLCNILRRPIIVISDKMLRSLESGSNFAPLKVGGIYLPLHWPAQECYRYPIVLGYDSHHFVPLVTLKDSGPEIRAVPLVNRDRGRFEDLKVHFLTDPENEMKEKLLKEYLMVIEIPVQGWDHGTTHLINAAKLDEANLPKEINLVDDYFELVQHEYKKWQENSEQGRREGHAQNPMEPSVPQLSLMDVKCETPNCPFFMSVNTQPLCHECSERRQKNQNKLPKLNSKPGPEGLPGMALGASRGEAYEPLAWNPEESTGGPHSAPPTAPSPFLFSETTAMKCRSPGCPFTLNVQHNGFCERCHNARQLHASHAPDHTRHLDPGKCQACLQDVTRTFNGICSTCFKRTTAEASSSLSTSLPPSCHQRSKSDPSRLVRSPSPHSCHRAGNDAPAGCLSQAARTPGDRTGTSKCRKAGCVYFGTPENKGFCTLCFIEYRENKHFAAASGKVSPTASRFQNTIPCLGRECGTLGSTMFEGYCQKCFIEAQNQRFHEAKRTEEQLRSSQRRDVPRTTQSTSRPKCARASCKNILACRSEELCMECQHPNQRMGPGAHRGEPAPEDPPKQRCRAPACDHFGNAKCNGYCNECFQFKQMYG
UniProt O94876, whole entry, looked up: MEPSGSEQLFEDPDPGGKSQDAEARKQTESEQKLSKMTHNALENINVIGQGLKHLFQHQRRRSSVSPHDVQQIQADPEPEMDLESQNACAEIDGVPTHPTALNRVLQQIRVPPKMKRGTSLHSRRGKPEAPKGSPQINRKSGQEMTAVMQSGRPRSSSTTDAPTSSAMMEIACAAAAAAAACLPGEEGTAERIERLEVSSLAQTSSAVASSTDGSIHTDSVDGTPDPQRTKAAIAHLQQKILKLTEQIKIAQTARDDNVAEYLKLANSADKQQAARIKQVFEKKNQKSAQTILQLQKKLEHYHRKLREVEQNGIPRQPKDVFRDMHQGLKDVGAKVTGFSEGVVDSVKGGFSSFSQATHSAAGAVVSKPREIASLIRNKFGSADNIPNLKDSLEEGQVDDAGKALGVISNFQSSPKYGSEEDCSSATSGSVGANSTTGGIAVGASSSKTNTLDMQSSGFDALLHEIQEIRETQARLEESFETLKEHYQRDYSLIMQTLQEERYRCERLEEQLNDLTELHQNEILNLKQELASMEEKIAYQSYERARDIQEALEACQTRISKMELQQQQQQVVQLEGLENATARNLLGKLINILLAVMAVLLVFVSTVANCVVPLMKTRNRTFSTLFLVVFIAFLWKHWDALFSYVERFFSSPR
UniProt Q9Y519: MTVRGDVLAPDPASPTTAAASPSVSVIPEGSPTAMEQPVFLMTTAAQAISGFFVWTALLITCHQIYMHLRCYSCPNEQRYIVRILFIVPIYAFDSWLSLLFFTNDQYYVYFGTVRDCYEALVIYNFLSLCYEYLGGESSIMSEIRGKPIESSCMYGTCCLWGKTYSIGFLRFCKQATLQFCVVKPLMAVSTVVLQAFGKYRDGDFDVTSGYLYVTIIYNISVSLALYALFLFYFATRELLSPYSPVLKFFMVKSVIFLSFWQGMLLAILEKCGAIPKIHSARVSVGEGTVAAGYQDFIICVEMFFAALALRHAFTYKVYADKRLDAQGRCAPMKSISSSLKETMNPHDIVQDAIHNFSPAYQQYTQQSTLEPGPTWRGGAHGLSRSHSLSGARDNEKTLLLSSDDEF
UniProt O75069: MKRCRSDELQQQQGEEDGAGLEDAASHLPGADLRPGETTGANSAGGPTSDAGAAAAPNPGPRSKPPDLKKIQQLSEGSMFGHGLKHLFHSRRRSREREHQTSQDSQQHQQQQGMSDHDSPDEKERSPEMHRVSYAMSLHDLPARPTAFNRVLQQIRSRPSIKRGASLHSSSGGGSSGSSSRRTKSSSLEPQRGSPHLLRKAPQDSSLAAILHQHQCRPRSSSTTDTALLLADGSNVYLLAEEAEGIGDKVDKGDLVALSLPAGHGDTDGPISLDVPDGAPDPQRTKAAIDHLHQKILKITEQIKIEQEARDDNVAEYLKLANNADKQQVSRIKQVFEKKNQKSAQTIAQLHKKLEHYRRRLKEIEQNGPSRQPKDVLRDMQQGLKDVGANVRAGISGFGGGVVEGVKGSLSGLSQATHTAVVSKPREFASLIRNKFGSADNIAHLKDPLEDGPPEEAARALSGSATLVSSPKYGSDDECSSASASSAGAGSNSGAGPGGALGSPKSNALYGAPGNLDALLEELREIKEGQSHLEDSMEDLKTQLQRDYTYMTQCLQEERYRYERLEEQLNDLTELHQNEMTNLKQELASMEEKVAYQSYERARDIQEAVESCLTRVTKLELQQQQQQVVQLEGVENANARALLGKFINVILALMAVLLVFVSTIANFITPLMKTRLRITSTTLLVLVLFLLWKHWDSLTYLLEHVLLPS
UniProt Q9NX00: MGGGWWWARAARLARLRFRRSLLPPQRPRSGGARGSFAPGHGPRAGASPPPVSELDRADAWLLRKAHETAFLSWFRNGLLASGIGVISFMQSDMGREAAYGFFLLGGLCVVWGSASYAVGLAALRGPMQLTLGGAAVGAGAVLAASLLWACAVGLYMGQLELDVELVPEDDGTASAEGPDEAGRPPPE

What was measured:
Assay in all cases: log2 fold change, soluble protein after heating vs DMSO (PISA); higher = thermal stabilisation; K562 cells, 10 uM, 30 min; active = over 0.2 and 3.5 SD of the protein, either way, in both replicates (recomputed)
[1] = compound: C1=CC=C(C=C1)[C@H](COC2=CC3=C(C=C2)NC(=O)N3)NC(=O)C4=CC=CN(C4=O)CC5=CC(=C(C=C5)F)F
Summary of the method: (§1)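 Quantification of soluble protein used TMTpro 16plex LC-MS/MS, with channel sums equalised. Samples were the supernatant after 21,000xg for 90 min of pooled aliquots from K562 cells (2×10^6 cells/mL) treated with 10 μM compound for 30 min, heated for 3 min over 48°C-58°C, and extracted in PBS with 0.5% NP-40 at 4°C. Values, from duplicates, describe thermal stability against control samples on a log2 fold-change scale.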

[2] = compound: CC1=C(SC2=C1C(=N[C@H](C3=NN=C(N32)C)CC(=O)N)C4=CC=C(C=C4)Cl)C
Summary of the method: as §1

[3] = compound: CC1=C2C(=CC=C1)N=C(N(C2=O)C3=CC=CC=C3C)CN4C=NC5=C(N=CN=C54)N
Summary of the method: as §1

[4] = compound: Cc1sc2c(c1C)C(c1ccc(Cl)cc1)=N[C@@H](CC(=O)OC(C)(C)C)c1nnc(C)n1-2
Summary of the method: as §1

[5] = compound: c1ccc([C@@H]2C[C@H]2NC2CCNCC2)cc1
Summary of the method: as §1

Measured: log2 fold change

TMOD3 (UniProt Q9NYL9)
inactive: [1] -0.005 | [2] 0.059 | [3] 0.005 | [4] 0.052 | [5] -0.037

TMC1 (UniProt Q8TDI8)
inactive: [1] -0.147 | [2] 0.095 | [3] 0.224 | [4] 0.05 | [5] 0.017

TM2D3 (UniProt Q9BRN9)
inactive: [1] -0.037 | [2] 0.066 | [3] -0.017 | [4] 0.013 | [5] 0.014

TMEM147 (UniProt Q9BVK8)
inactive: [1] -0.1 | [2] -0.031 | [3] -0.011 | [4] 0.087 | [5] 0.242

TMEM185B (UniProt Q9H7F4)
inactive: [1] 0.004 | [2] -0.004 | [3] 0.035 | [4] -0.004 | [5] -0.02

TMEM129
inactive: [4] -0.09

TMEM69 (UniProt Q5SWH9)
inactive: [1] -0.058 | [2] 0.117 | [4] -0.025 | [5] -0.03

TNFAIP3 (UniProt P21580)
inactive: [1] 0.098 | [2] -0.034 | [3] 0.077 | [5] -0.073

TMEM167B (UniProt Q9NRX6)
inactive: [1] -0.018 | [3] 0.059 | [4] 0.01

TMCC1 (UniProt O94876)
inactive: [2] 0.071 | [5] -0.032

TMEM184B (UniProt Q9Y519)
inactive: [1] 0.04 | [4] 0.041

TMCC2 (UniProt O75069)
inactive: [2] -0.025 | [5] -0.077

TMEM160 (UniProt Q9NX00)
inactive: [1] 0.085 | [2] 0.01 | [3] 0.074 | [4] 0.165 | [5] -0.069

Reprinted at random: two entries already listed.
TMEM184B (UniProt Q9Y519)
inactive: [1] 0.04 | [4] 0.041

TMCC1 (UniProt O94876)
inactive: [2] 0.071 | [5] -0.032
